In assay [1] the target is C3d, P01024. Kind of assay: ELISA; competition: C3b or C3dg (methods; C3d in results) 5 µg/ml immobilised; constant CFHR2 (5 µg/ml, 0.07 µM) and increasing factor H (5–50 µg/ml, 0.033–0.33 µM); factor H detected with factor H/1-4 antiserum, CFHR2 with mAb A72; both purified. The conditions noted are these: remark: other sources report otherwise. Background: ELISA stands for enzyme-linked immunosorbent assay.

For assay [2], the target named is C3d, P01024. Kind of assay: ELISA; competition: C3b or C3dg (methods; C3d in results) 5 µg/ml immobilised; constant factor H (10 µg/ml, 0.07 µM) and increasing CFHR2 (2.5–40 µg/ml, 0.035–0.56 µM); factor H detected with factor H/1-4 antiserum, CFHR2 with mAb A72; both purified. The conditions noted are these: remark: other sources report otherwise.

No constants are given. Whether binding was seen depends on the method and setting. Some results given as binding are weak or reduced against the parent protein; the word gives no strength.

B1: Factor H, P08603 19-1231 (protein)
chain: EDCNELPPRRNTEILTGSWSDQTYPEGTQAIYKCRPGYRSLGNVIMVCRKGEWVALNPLRKCQKRPCGHPGDTPFGTFTLTGGNVFEYGVKAVYTCNEGYQLLGEINYRECDTDGWTNDIPICEVVKCLPVTAPENGKIVSSAMEPDREYHFGQAVRFVCNSGYKIEGDEEMHCSDDGFWSKEKPKCVEISCKSPDVINGSPISQKIIYKENERFQYKCNMGYEYSERGDAVCTESGWRPLPSCEEKSCDNPYIPNGDYSPLRIKHRTGDEITYQCRNGFYPATRGNTAKCTSTGWIPAPRCTLKPCDYPDIKHGGLYHENMRRPYFPVAVGKYYSYYCDEHFETPSGSYWDHIHCTQDGWSPAVPCLRKCYFPYLENGYNQNYGRKFVQGKSIDVACHPGYALPKAQTTVTCMENGWSPTPRCIRVKTCSKSSIDIENGFISESQYTYALKEKAKYQCKLGYVTADGETSGSITCGKDGWSAQPTCIKSCDIPVFMNARTKNDFTWFKLNDTLDYECHDGYESNTGSTTGSIVCGYNGWSDLPICYERECELPKIDVHLVPDRKKDQYKVGEVLKFSCKPGFTIVGPNSVQCYHFGLSPDLPICKEQVQSCGPPPELLNGNVKEKTKEEYGHSEVVEYYCNPRFLMKGPNKIQCVDGEWTTLPVCIVEESTCGDIPELEHGWAQLSSPPYYYGDSVEFNCSESFTMIGHRSITCIHGVWTQLPQCVAIDKLKKCKSSNLIILEEHLKNKKEFDHNSNIRYRCRGKEGWIHTVCINGRWDPEVNCSMAQIQLCPPPPQIPNSHNMTTTLNYRDGEKVSVLCQENYLIQEGEEITCKDGRWQSIPLCVEKIPCSQPPQIEHGTINSSRSSQESYAHGTKLSYTCEGGFRISEENETTCYMGKWSSPPQCEGLPCKSPPEISHGVVAHMSDSYQYGEEVTYKCFEGFGIDGPAIAKCLGEKWSHPPSCIKTDCLSLPSFENAIPMGEKKDVYKAGEQVTYTCATYYKMDGASNVTCINSRWTGRPTCRDTSCVNPPTVQNAYIVSRQMSKYPSGERVRYQCRSPYEMFGDEEVMCLNGNWTEPPQCKDSTGKCGPPPPIDNGDITSFPLSVYAPASSVEYQCQNLYQLEGNKRITCRNGQWSEPPKCLHPCVISREIMENYNIALRWTAKQKLYSRTGESVEFVCKRGYRLSSRSHTLRTTCWDGKLEYPTCAKR
Turning to B1, the binding entry with C3d, P01024 [1] is “binds”; with C3d, P01024 [2], “binds”.

(Values after PMC3832495.)
